Experimental data taken from PMC9949642.
Results are given in words; binding and its absence hold for the method and conditions named. In cells and extracts the contact can be indirect. Here binding means that the protein was enriched with, or labelled near, the bait; the list need not be complete. Tags and fused reporters may be left off the sequences shown.

Molecular target: T1, ZTF-7::GFP::3xFLAG (C. elegans) (UniProt Q20448)
T1 sequence: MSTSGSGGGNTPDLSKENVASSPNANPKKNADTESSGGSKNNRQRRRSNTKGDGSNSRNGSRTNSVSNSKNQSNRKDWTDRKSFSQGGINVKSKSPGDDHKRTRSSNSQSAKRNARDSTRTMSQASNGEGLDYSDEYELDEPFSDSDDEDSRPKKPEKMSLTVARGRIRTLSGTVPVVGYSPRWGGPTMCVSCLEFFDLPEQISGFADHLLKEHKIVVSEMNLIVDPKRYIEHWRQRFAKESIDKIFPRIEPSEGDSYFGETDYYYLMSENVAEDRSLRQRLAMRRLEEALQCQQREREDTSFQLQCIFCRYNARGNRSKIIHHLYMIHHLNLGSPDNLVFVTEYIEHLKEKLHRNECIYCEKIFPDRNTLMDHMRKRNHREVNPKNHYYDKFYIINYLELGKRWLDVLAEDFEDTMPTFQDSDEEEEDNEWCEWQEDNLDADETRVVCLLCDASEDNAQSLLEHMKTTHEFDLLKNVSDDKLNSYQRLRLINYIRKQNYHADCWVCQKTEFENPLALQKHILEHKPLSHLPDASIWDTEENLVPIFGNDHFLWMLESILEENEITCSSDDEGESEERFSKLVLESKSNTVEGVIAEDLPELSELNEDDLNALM
Experiment: affinity purification with mass spectrometry; ZTF-7::GFP::3xFLAG immunoprecipitated with anti-FLAG antibody from lysate of L3/L4 animals grown at 20°C (25 mM Tris-HCl pH 7.4, 150 mM NaCl, 10% glycerol, 1% NP-40, 1 mM EDTA), overnight at 4°C, Protein A/G agarose; SDS-PAGE, Coomassie stain, band cut out and identified by mass spectrometry

B1: RPS-2 (protein, UniProt P51403 1-272)
chain: MADRGGFQSGFGGRGGGRGGARPAGDRPAGRGGRGGRGGRGGRGGRAGRGGEKETEWTPVTKLGRLVKEKKITTLEEIYLNSLPIKEFEIIDALCSNLKDEVLKISPVQKQTTAGQRTRFKAFVAIGDHAGHVGLGVKCSKEVATAIRGAIVAAKLAVVPVRRGYWGNKIGLPHTVPCKVTGKCASVMVRLIPAPRGTGIVSAPVPKKLLHMAGIEDCYTAAKGSTATLGNFAKATYAALQRTYSYLTPDLWKEEALEKSPYQRHHEYLARN
How did the binding turn out when B1 was run?
Its binding is “binds”.
